From patent publication EP0502418A1, “Use of levemopamil for the manufacture of a medicament for the treatment of alcohol abuse” (priority 1991, dated 1992)
For at least one compound, name, drawing or mass did not settle the structure.

Tested on: P rats
Experiment: Alcohol, water, total fluid and food intake in P rats, three doses of nimodipine (Example 7)
Assay type: in vivo

COCCOC(=O)C1=C(C)NC(C)=C(C(=O)OC(C)C)C1c1cccc([N+](=O)[O-])c1 (stereo not shown) [nimodipine]
total fluid intake (4.6, 9.2 or 13.8 mg/Kg, vs control, Figure 9): unaffected | food intake (4.6, 9.2 or 13.8 mg/Kg, vs control, Figure 10): unaffected | ethanol intake (any dose: 4.6, 9.2 or 13.8 mg/Kg, saline control, Figure 7): failed to exert a significant effect | water intake (any dose: 4.6, 9.2 or 13.8 mg/Kg, saline control, Figure 8): not significantly affected
